Values from PubChem BioAssay AID1224830 (NIAID, 2016).
The deposit covers about 18,000 reagents; this is a part drawn at random. About 2,900 of all reagents (16%) count as active. 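Calls are made per well; low scores hint the gene aids the LPS response, high scores that it dampens it.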 Repeated entries: four replicate wells of each siRNA pool.

- Screen: 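Host factors that control LPS-induced TNF expression in human macrophages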 (primary screen)
- System: human THP-1 monocytic leukaemia cells, TNF dual-luciferase reporter clone, PMA-differentiated to macrophage-like cells
- Knock-down reagent: siRNA pool against human genes, 50 nM
- Time to read-out: LPS for 4 h, given about 3 days after siRNA transfection
- Treatment: bacterial LPS (TLR4 ligand), 10 ng/ml
- Detection: 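TNF firefly reporter luminescence divided by renilla, normalised to the plate median, then turned into a robust z-score for each replicate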
- Scale: TNF reporter robust z-score: higher = stronger TNF reporter response to LPS
- Call rule: 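Each well counts as active if its z-score is over 2.8 or under -1.5; controls are left without a call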

no.	gene	TNF reporter robust z-score	Outcome
1	COL8A2	-1.22	inactive
2	COL8A2	-0.94	inactive
3	COL8A2	-1.21	inactive
4	COL8A2	-1.14	inactive
5	ACY1	-0.5	inactive
6	ACY1	-0.25	inactive
7	ACY1	-0.11	inactive
8	ACY1	0	inactive
9	PSMG2	0.38	inactive
10	PSMG2	1.37	inactive
11	PSMG2	-0.02	inactive
12	PSMG2	4.65	active
13	ZNF326	0.14	inactive
14	ZNF326	-0.57	inactive
15	ZNF326	-0.02	inactive
16	ZNF326	-0.26	inactive
17	ABI3BP	-0.31	inactive
18	ABI3BP	0.52	inactive
19	ABI3BP	0.04	inactive
20	ABI3BP	0.28	inactive
21	LHX3	1.76	inactive
22	LHX3	2.07	inactive
23	LHX3	0.49	inactive
24	LHX3	0.54	inactive
25	TBCD	0.58	inactive
26	TBCD	0.33	inactive
27	TBCD	0.42	inactive
28	TBCD	0.32	inactive
29	AQP7	-0.34	inactive
30	AQP7	-0.26	inactive
31	AQP7	0.03	inactive
32	AQP7	-0.44	inactive
33	CEP41	-0.97	inactive
34	CEP41	-0.5	inactive
35	CEP41	-1.47	inactive
36	CEP41	-1.23	inactive
37	PLA2G4F	-1.29	inactive
38	PLA2G4F	-0.9	inactive
39	PLA2G4F	-0.57	inactive
40	PLA2G4F	-0.2	inactive
41	BHLHE22	-0.85	inactive
42	BHLHE22	-0.59	inactive
43	BHLHE22	-0.71	inactive
44	BHLHE22	-0.68	inactive
45	RNF10	0.97	inactive
46	RNF10	3.26	active
47	RNF10	-2.51	active
48	RNF10	1.71	inactive
